Laboratory results from paper doi:10.1101/2024.08.26.609654.
These are yes or no findings as the source states them, for the method shown. In cells and extracts the contact can be indirect. Binding can be weak; no strength is given. Sequences can lack the tags named with a protein.

Biological target: T1, 3×Flag-MED26 (UniProt O95402)
T1 sequence: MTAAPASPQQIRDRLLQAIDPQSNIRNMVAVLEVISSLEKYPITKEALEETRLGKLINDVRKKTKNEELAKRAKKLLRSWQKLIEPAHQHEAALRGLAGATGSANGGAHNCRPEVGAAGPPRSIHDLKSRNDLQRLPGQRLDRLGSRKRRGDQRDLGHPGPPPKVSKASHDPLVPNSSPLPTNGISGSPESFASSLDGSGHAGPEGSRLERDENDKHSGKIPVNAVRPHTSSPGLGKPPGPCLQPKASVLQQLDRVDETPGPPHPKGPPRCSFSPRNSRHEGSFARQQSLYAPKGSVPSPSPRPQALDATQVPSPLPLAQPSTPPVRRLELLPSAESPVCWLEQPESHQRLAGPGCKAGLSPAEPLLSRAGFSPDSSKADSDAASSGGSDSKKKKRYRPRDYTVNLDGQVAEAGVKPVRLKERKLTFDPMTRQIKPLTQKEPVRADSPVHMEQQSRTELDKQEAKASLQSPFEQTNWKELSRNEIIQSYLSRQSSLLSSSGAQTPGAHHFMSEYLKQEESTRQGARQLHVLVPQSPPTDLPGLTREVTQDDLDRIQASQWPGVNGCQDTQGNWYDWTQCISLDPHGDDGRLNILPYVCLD
Assay: co-IP

Question: NELF-D (human (endogenous in HEK293)) was tested. Which binding did it give?
Answer: binds
